PubChem BioAssay AID1259308 | NCATS – 2017
In all, the deposit lists about 59,000 reagents; below is a random part of them. Of all reagents, about 1,510 (2.6%) were called active. 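Calls use total luciferase alone and ignore viability, so some active siRNAs may act by altering cell number.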 Unmarked entries are inactive. The numbers tell different reagents against one gene apart. Not all columns of the deposit are shown.

- Aim: 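Knock-downs that increase output of a recombinant reporter protein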 (primary screen)
- Cells: human HEK293 embryonic kidney cells stably expressing firefly luciferase (HEK-CMV-Luc2-Hygro)
- Reagent: single siRNA against human genes, 0.8 pmol siRNA per well
- Timing: 72 h
- Read-out: 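Luciferase light (ONE-Glo) measured on one replicate plate set and viability (CellTiter-Glo) on the other, scaled to a negative control siRNA, with robust z-scores and luciferase per cell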
- Direction: total luciferase, z-score: higher = more reporter protein produced
- Call rule: 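Active when the median/MAD z-score for overall luciferase is greater than 3; a gene was taken forward for validation with new siRNAs if at least two of its three siRNAs passed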
- Meaning of the calls: active = raised luciferase; inactive = no rise

total luciferase, z-score, by target and reagent
TM2D1: #1 -0.733; #2 -0.99; #3 -0.148
METTL6: #1 -0.591; #2 -0.763; #3 2.09
LIN37: #1 -0.698; #2 0.981; #3 2.16
LY86: #1 -0.185; #2 -0.225; #3 -0.776
CYP4F22: #1 2.15; #2 -0.773; #3 0.0707
CFAP57: #1 -0.761; #2 -0.553; #3 -0.0872
TFRC: #1 0.442; #2 -0.501; #3 -0.91
RPN2: #1 1.53; #2 -1.7; #3 -2.05
MEGF11: #1 1.17; #2 2.37; #3 2.72
SMARCB1: #1 -1.54; #2 -0.675; #3 2.34
SOX5: #1 1.46; #2 -0.0386; #3 0.373
ZDHHC21: #1 -0.131; #2 0.618; #3 3.31 (active)
ERMN: #1 -0.813; #2 0.0182; #3 -1.17

Hits, among the entries above:
total luciferase, z-score, by target and reagent
ZDHHC21: #3 3.31 (active)
